Literature values in US11331287B2, “Iron supplement” (Balchem Corporation, priority 2013, dated 2022).
Some results were stated once for a whole list of compounds, not compound by compound.

Conditions: stated as typical, very poor

In the case of `CC(=O)N(O)CCCCCNC(=O)CCC(=O)N(O)CCCCCNC(=O)CCC(=O)N(O)CCCCCN` [DFO, deferoxamine], the oral absorption is given as < 5%.
